Reference: the supplement of paper PMC10849652
The other results are listed elsewhere or left out. Residues, ends and D or L forms follow the SMILES beside them. *: point of attachment. Cbz = O=C(OCc1ccccc1)*

By UniProt entry, the sequences of proteins in these tests, tags left out. Where a name states a change or a piece, a line headed by the entry shows the natural chain unless it says otherwise.
UniProt Q14119: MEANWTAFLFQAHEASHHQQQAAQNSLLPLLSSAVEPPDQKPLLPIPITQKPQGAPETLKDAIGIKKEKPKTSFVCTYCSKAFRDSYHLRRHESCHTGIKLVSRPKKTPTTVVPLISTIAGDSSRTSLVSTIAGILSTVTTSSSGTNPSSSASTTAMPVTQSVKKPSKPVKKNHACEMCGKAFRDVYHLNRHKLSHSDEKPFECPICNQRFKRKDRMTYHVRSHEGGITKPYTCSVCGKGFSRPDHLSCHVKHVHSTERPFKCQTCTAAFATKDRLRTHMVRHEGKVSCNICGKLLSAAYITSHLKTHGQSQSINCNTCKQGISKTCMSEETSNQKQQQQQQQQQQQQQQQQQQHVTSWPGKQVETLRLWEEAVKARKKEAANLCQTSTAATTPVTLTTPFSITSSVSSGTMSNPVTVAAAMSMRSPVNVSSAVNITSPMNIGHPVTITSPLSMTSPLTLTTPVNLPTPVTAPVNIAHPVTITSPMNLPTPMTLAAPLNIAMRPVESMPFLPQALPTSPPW
UniProt A3KMH1: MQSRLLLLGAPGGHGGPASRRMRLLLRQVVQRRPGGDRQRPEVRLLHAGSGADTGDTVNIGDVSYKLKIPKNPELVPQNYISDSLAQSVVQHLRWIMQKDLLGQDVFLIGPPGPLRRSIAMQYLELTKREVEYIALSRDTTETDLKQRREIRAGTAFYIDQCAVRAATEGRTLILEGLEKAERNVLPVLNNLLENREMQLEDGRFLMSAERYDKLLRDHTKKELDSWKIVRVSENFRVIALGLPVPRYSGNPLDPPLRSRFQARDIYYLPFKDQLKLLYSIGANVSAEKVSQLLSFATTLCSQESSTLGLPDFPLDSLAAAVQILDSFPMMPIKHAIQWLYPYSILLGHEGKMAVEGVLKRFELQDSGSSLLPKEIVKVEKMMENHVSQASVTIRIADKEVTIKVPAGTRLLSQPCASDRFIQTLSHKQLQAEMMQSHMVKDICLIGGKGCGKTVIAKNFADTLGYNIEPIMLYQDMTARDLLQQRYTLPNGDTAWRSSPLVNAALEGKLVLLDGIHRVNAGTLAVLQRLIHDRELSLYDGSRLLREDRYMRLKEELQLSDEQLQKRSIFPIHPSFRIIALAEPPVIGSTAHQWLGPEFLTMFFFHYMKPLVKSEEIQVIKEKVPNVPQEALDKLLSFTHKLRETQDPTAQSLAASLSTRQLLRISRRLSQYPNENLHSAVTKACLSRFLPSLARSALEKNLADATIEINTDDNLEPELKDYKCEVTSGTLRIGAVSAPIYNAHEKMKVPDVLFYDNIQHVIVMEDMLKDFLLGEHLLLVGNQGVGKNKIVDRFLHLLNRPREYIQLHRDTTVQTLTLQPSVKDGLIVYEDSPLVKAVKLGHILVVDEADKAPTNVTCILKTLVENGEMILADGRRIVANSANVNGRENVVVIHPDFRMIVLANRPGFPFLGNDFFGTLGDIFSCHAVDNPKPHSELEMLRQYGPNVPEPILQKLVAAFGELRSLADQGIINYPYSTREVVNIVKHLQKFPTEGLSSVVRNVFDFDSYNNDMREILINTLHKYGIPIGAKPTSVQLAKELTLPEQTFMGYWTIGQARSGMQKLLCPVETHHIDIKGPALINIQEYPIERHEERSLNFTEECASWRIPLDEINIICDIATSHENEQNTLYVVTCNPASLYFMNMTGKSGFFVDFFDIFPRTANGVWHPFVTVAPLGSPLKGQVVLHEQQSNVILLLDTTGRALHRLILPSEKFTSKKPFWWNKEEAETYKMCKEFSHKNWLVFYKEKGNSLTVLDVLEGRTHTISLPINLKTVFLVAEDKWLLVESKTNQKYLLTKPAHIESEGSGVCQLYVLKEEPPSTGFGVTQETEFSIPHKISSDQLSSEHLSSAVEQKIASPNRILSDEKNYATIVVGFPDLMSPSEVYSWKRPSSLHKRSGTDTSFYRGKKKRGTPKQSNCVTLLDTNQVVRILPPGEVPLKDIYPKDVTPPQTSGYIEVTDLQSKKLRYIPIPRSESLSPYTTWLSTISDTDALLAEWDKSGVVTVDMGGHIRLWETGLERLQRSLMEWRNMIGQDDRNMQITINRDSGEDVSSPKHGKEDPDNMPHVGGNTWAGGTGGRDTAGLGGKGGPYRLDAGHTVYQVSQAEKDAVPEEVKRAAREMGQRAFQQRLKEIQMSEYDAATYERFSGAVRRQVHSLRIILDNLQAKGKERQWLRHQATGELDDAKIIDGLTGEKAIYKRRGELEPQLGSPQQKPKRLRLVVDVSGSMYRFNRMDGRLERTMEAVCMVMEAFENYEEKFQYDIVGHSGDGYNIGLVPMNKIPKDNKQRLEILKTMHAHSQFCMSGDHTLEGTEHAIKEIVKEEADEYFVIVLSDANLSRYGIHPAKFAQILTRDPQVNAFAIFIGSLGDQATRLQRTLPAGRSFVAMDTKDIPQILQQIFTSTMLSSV
UniProt Q9Y3C0: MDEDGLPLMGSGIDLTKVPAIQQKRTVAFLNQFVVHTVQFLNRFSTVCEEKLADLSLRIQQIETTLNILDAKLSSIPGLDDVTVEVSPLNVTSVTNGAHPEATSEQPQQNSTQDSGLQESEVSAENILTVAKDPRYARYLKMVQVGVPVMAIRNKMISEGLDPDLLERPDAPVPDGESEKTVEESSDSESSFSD
UniProt Q96P53: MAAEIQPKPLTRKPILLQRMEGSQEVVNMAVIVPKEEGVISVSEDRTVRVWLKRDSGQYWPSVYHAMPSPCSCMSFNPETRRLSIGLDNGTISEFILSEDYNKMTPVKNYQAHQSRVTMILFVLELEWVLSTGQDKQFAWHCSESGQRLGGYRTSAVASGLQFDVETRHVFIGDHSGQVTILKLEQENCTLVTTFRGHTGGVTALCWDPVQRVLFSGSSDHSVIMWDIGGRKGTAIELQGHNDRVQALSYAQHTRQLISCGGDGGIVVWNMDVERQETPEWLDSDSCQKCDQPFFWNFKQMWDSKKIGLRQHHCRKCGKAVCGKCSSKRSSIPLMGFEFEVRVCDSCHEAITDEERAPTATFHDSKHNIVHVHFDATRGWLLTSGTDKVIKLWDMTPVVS
UniProt P98170, whole entry, looked up: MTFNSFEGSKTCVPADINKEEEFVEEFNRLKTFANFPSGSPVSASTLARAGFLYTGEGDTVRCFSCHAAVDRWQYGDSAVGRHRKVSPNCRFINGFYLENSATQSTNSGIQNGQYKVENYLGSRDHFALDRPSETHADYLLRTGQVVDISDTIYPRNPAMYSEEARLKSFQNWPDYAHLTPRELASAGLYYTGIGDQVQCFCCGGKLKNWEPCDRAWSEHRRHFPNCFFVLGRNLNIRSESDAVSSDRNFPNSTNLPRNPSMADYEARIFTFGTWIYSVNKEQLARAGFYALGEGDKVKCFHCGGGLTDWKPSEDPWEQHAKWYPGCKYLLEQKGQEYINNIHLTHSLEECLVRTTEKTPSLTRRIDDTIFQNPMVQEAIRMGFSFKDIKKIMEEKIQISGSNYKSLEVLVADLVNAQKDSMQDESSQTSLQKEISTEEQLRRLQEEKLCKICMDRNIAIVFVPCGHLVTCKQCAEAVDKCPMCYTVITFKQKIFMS
UniProt Q9P1Q0: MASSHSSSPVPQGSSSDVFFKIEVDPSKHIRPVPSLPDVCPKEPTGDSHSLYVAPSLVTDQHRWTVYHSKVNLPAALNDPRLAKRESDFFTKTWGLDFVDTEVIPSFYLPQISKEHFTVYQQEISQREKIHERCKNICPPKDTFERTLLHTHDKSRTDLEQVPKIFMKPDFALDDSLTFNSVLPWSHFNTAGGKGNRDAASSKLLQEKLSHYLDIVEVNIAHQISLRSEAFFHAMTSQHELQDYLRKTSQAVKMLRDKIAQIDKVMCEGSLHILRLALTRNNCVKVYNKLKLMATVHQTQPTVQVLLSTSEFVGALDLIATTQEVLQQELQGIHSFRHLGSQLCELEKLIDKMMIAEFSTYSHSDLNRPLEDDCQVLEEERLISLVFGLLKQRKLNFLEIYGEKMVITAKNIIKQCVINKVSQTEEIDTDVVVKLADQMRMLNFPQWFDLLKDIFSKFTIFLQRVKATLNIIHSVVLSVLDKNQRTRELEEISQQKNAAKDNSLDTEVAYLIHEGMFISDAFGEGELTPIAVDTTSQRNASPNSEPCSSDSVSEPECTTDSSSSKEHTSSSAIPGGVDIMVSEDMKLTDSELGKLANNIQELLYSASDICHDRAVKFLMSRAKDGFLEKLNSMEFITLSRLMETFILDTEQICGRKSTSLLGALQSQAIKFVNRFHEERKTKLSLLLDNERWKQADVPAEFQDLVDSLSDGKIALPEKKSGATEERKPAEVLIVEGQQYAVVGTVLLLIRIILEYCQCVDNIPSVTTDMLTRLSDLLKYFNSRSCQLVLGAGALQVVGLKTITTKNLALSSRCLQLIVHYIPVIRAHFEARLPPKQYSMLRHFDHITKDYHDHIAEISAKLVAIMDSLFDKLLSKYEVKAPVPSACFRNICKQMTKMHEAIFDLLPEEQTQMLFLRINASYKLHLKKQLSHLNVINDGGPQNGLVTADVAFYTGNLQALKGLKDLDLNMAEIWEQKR
UniProt P21796, whole entry, looked up: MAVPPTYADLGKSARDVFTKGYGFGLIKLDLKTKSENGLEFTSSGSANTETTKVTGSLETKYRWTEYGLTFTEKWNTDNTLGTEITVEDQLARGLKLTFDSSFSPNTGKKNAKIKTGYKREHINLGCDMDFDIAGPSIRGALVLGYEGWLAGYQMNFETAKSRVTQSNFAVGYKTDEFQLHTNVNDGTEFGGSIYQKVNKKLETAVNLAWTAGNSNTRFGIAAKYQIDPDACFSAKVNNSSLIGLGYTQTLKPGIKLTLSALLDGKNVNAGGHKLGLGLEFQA
UniProt A5D8V6: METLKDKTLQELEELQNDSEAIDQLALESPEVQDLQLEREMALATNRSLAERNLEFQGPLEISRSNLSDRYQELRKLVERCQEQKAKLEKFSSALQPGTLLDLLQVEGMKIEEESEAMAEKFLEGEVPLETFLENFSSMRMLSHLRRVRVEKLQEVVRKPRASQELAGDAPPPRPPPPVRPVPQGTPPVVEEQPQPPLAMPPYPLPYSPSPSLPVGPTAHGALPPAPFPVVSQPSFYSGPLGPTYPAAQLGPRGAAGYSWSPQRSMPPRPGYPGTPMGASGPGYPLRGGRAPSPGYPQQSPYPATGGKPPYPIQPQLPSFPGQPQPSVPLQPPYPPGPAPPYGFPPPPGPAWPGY

Columns and labels:
Assay in all cases: log2 fold change, soluble protein after heating vs DMSO (PISA); higher = thermal stabilisation; K562 cells, 10 uM, 30 min; active = over 0.2 and 3.5 SD of the protein, either way, in both replicates (recomputed)
erlotinib = compound: C#Cc1cccc(Nc2ncnc3cc(OCCOC)c(OCCOC)cc23)c1 [erlotinib]
Summary of the method: (§1)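 K562 cells (2×10^6 cells/mL) were treated with 10 μM compound for 30 min, and aliquots were heated for 3 min over 48°C-58°C. Pooled aliquots were extracted in PBS with 0.5% NP-40 at 4°C, and the supernatant after 21,000xg for 90 min was measured by TMTpro 16plex LC-MS/MS with channel sums equalised. Reported thermal stability, relative to control samples and from duplicates, is a log2 fold change.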

[1] = compound: C/C(=N\NC(=O)C1=CC(=CC=C1)S(=O)(=O)N2CCOCC2)/C3=C(C=CC(=C3)Cl)O
Summary of the method: as §1

[2] = compound: C1=CC(=C(C=C1Cl)C2=NC3=NC=CN=C3C(=N2)NC4=CC=NC=C4)F
Summary of the method: as §1

[3] = compound: C1=CC(=CC=C1C2=NC3=C(N2)C=C(C=C3)C(=O)N)OC4=CC=C(C=C4)Cl
Summary of the method: as §1

[4] = compound: C1=CC2=C(C=CC(=C2)/C=C\3/C(=O)NC(=NCC4=CC=CS4)S3)N=C1
Summary of the method: as §1

[5] = compound: C1=CC2=NC=CN=C2C=C1/C=C/3\C(=O)NC(=O)S3
Summary of the method: as §1

[6] = compound: C1=CC=C(C=C1)C2=NC(=C(N2)C3=CC=NC=C3)C4=CC(=C(C=C4)Cl)O
Summary of the method: as §1

[7] = compound: C1=CC=C2C(=C1)C3=NNC4=CC=CC(=C43)C2=O
Summary of the method: as §1

IRAK-1-4 Inhibitor I = compound: C1COCCN1CCN2C3=CC=CC=C3N=C2NC(=O)C4=CC(=CC=C4)[N+](=O)[O-] [IRAK-1-4 Inhibitor I]
Summary of the method: as §1

ibrutinib = compound: C=CC(=O)N1CCC[C@@H](n2nc(-c3ccc(Oc4ccccc4)cc3)c3c(N)ncnc32)C1 [ibrutinib]
Summary of the method: as §1

[8] = compound: CC(=O)c1cnc2ccc(-c3cc(Cl)c(O)c(Cl)c3)nc2c1N[C@H]1CC[C@H](CN(C)C)CC1
Summary of the method: as §1

ralimetinib = compound: CC(C)(C)Cn1c(N)nc2ccc(-c3[nH]c(C(C)(C)C)nc3-c3ccc(F)cc3)nc21 [ralimetinib]
Summary of the method: as §1

[9] = compound: CC(C)(O)CC(=O)NCCn1ccc2ncnc(Nc3ccc(Oc4cccc(C(F)(F)F)c4)c(Cl)c3)c21
Summary of the method: as §1

[10] = compound: CC(C)C1=C2N=C(C=C(N2N=C1)NCC3=CC=CC=C3)NCCCCCCN
Summary of the method: as §1

[11] = compound: CC(C)C[C@@H](C=O)NC(=O)[C@H](CC(C)C)NC(=O)[C@H](CC(C)C)NC(=O)OCc1ccccc1
Summary of the method: as §1

pinometostat = compound: CC(C)N(C[C@H]1O[C@@H](n2cnc3c(N)ncnc32)[C@H](O)[C@@H]1O)[C@H]1C[C@@H](CCc2nc3cc(C(C)(C)C)ccc3[nH]2)C1 [pinometostat]
Summary of the method: as §1

[12] = compound: CC1=C(C(CC(=O)N1)C2=CC=C(C=C2)C(F)(F)F)C(=O)NC3=C(C=C4C(=C3)C=NN4)F
Summary of the method: as §1

[13] = compound: C1CCN(C1)C(=O)NC2=CC=CC(=C2)NC3=NC=C(C(=N3)NCCC4=CN=CN4)Br
Summary of the method: as §1

[14] = compound: C1CN(CCC1(CC2=CC=C(C=C2)Cl)N)C3=NC=NC4=C3C=CN4
Summary of the method: as §1

[15] = compound: CC1=C(C2=C(C=C1)C(=O)C3=CC=CC=C3N2CCCN)C
Summary of the method: as §1

Measured: log2 fold change

VEZF1 (UniProt Q14119)
inactive: erlotinib -0.147 | [1] -0.224 | [2] -0.428 | [3] 0.028 | [4] -0.168 | [5] 0 | [6] -0.15 | [7] -0.057 | IRAK-1-4 Inhibitor I -0.24 | ibrutinib -0.026 | [8] 0.063 | ralimetinib -0.017 | [9] 0.122 | [10] 0.116 | [11] 0.071 | pinometostat 0.127 | [12] 0.004

VWA8 (UniProt A3KMH1)
inactive: erlotinib 0.077 | [1] 0.037 | [2] 0.017 | [3] -0.036 | [4] 0.108 | [5] 0.008 | [6] 0.017 | [7] 0.069 | [13] -0.009 | [14] 0.042 | IRAK-1-4 Inhibitor I 0.022 | ibrutinib -0.015 | [8] -0.041 | ralimetinib 0.016 | [9] -0.115 | [10] -0.149 | [11] -0.032 | pinometostat -0.004 | [15] 0.021

WASHC3 (UniProt Q9Y3C0)
inactive: erlotinib 0.029 | [1] -0.015 | [2] 0.053 | [3] 0.007 | [4] 0.12 | [5] 0.036 | [6] 0.017 | [7] -0.114 | [13] -0.041 | [14] 0.059 | IRAK-1-4 Inhibitor I 0.096 | ibrutinib 0.015 | [8] 0.023 | ralimetinib -0.033 | [9] 0.024 | [10] -0.166 | [11] -0.041 | pinometostat -0.074 | [15] 0.032

WDFY2 (UniProt Q96P53)
inactive: erlotinib 0.031 | [1] -0.025 | [3] 0.072 | [4] -0.164 | [7] -0.077 | [13] -0.079 | [14] 0.098 | [8] -0.241 | [10] -0.204 | [15] -0.083

XIAP (UniProt P98170)
inactive: erlotinib 0.166 | [1] 0.062 | [2] 0.1 | [3] -0.002 | [4] 0.075 | [5] -0.018 | [7] -0.002 | [13] -0.024 | [14] 0.065 | ibrutinib -0.076 | [8] -0.105 | [9] -0.157 | [10] -0.05 | [15] -0.002

VPS54 (UniProt Q9P1Q0)
inactive: erlotinib 0.089 | [1] 0.138 | [3] -0.149 | [4] -0.132 | [7] 0.026 | [13] -0.074 | [14] 0.144 | [8] -0.22 | [10] 0.039 | [15] 0.113

VCX3B (UniProt Q9H321)
inactive: erlotinib 0.057 | [1] -0.022 | [2] -0.028 | [3] 0.013 | [4] 0.042 | [5] -0.085 | [7] 0.006 | [13] 0.029 | [14] -0.031 | ibrutinib 0.021 | [8] -0.187 | [9] 0.054 | [10] 0.032 | [12] 0.017 | [15] -0.009

VDAC1 (UniProt P21796)
inactive: erlotinib -0.006 | [1] 0 | [2] 0.039 | [3] -0.003 | [4] -0.023 | [5] 0.006 | [6] -0.004 | [7] 0.005 | [13] 0.006 | [14] 0.067 | IRAK-1-4 Inhibitor I 0.07 | [8] 0.02 | ralimetinib -0.035 | [9] 0.021 | [10] 0.058 | [11] -0.039 | pinometostat -0.032 | [15] -0.016

VPS37C (UniProt A5D8V6)
inactive: erlotinib 0.101 | [1] -0.006 | [2] 0.091 | [3] -0.094 | [4] -0.024 | [5] 0.081 | [7] -0.036 | [13] -0.125 | [14] 0.045 | IRAK-1-4 Inhibitor I 0.037 | ibrutinib -0.001 | [8] -0.026 | [9] 0.002 | [10] -0.057 | pinometostat -0.007 | [12] 0.09 | [15] 0.004

VDAC1 (UniProt C9JI87)
inactive: erlotinib 0.277 | [1] -0.05 | [2] 0.095 | [3] -0.01 | [4] 0.13 | [5] 0.124 | [6] 0.091 | [7] -0.04 | [8] -0.091 | ralimetinib -0.506 | [9] -0.052 | [10] 0.009 | [11] -0.013

Quoted at random: 2 records from the list.
VPS54 (UniProt Q9P1Q0)
inactive: erlotinib 0.089 | [1] 0.138 | [3] -0.149 | [4] -0.132 | [7] 0.026 | [13] -0.074 | [14] 0.144 | [8] -0.22 | [10] 0.039 | [15] 0.113

VDAC1 (UniProt P21796)
inactive: erlotinib -0.006 | [1] 0 | [2] 0.039 | [3] -0.003 | [4] -0.023 | [5] 0.006 | [6] -0.004 | [7] 0.005 | [13] 0.006 | [14] 0.067 | IRAK-1-4 Inhibitor I 0.07 | [8] 0.02 | ralimetinib -0.035 | [9] 0.021 | [10] 0.058 | [11] -0.039 | pinometostat -0.032 | [15] -0.016
